Data published in the supplement of paper PMC10331698.
± gives the standard deviation of the averaged measurements. Most entries show no effect beyond the scatter of the controls.

Key:
Assay in all cases: level (log10 ratio to DMSO vehicle control); higher = higher biomarker level / cell amount than vehicle control
[1] = compound: C=C(C)C(=O)OCC(F)(F)C(F)(F)C(F)(F)F [2,2,3,3,4,4,4-Heptafluorobutyl methacrylate]; conditions: 2200 nM; in DMSO
Protocol: (§1)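 BioMAP Diversity Plus panel of 12 human primary cell co-culture systems (3C, 4H, LPS, SAg, BT, BF4T, BE3C, CASM3C, HDF3CGF, KF3CT, MyoF, Mphg). Compounds were added 1 h before stimulation and left for 24 h (MyoF 48 h; BT 72 h for soluble read-outs or 6 d for IgG). Biomarkers were read by ELISA, cytotoxicity by SRB, PBMC viability and proliferation by Alamar Blue. Each well value was divided by the mean of 8 DMSO control wells on the same plate and log10 transformed; duplicate blinded samples were tested at 4 concentrations.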

[2] = compound: C=CC(=O)OCC(F)(F)C(F)(F)C(F)(F)C(F)(F)COC(=O)C=C [1H,1H,6H,6H-Perfluorohexane-1,6-diol diacrylate]; conditions: 2200 nM; in DMSO
Protocol: as §1

[3] = compound: FC(F)(F)C(F)(F)C(F)(F)C(F)(F)C(F)(F)C(F)(F)C(F)(F)CCI [1-Iodo-1H,1H,2H,2H-perfluorononane]; conditions: in DMSO
Protocol: as §1

[4] = compound: FC(F)(F)C(F)(F)C(F)(F)C(F)(F)C(F)(F)C(F)(F)C(F)(F)I [1-Iodopentadecafluoroheptane]; conditions: in DMSO
Protocol: as §1

[5] = compound: FC(F)C(F)(F)COCC1CO1 [((2,2,3,3-Tetrafluoropropoxy)methyl)oxirane]; conditions: 2200 nM; in DMSO
Protocol: as §1

Perfluorooctanamide = compound: NC(=O)C(F)(F)C(F)(F)C(F)(F)C(F)(F)C(F)(F)C(F)(F)C(F)(F)F [Perfluorooctanamide]; conditions: 2200 nM; in DMSO
Protocol: as §1

Perfluoroundecanoic acid = compound: O=C(O)C(F)(F)C(F)(F)C(F)(F)C(F)(F)C(F)(F)C(F)(F)C(F)(F)C(F)(F)C(F)(F)C(F)(F)F [Perfluoroundecanoic acid]; conditions: in DMSO
Protocol: as §1

[6] = compound: O=C(O)C(F)(F)C(F)(F)C(F)(F)C(F)(F)C(F)(F)C(F)(F)C(F)(F)C(F)F [9-H-Perfluorononanoic acid]; conditions: 2200 nM; in DMSO
Protocol: as §1

Perfluorobutanoic acid = compound: O=C(O)C(F)(F)C(F)(F)C(F)(F)F [Perfluorobutanoic acid]; conditions: 2200 nM; in DMSO
Protocol: as §1

Perfluoropropanoic acid = compound: O=C(O)C(F)(F)C(F)(F)F [Perfluoropropanoic acid]; conditions: 2200 nM; in DMSO
Protocol: as §1

[7] = compound: O=C(O)C(F)(F)C(F)(F)OC(F)(F)F [Perfluoro-3-methoxypropanoic acid]; conditions: 2200 nM; in DMSO
Protocol: as §1

[8] = compound: O=C(O)C(F)(F)OC(F)(F)C(F)(F)OC(F)(F)C(=O)O [Perfluoro-3,6-dioxaoctane-1,8-dioic acid]; conditions: 2200 nM; in DMSO
Protocol: as §1

[9] = compound: O=C(O)C(F)(F)OC(F)(F)C(F)(F)OC(F)(F)C(F)(F)C(F)(F)C(F)(F)F [Perfluoro-3,6-dioxadecanoic acid]; conditions: 2200 nM; in DMSO
Protocol: as §1

[10] = compound: O=C(O)C=CC(F)(C(F)(F)F)C(F)(F)F [3-(Perfluoroisopropyl)-2-propenoic acid]; conditions: in DMSO
Protocol: as §1

[11] = compound: O=P(O)(O)CCC(F)(F)C(F)(F)C(F)(F)C(F)(F)C(F)(F)C(F)(F)C(F)(F)C(F)(F)F [((Perfluorooctyl)ethyl)phosphonic acid]; conditions: 2200 nM; in DMSO
Protocol: as §1

[12] = compound: O=S(=O)(Cl)C(F)(F)C(F)(F)C(F)(F)C(F)(F)C(F)(F)C(F)(F)C(F)(F)C(F)(F)F [Perfluoro-1-octanesulfonyl chloride]; conditions: 2200 nM; in DMSO
Protocol: as §1

[13] = compound: OCC(F)(F)C(F)(F)C(F)(F)C(F)(F)C(F)(F)C(F)(F)C(F)(F)C(F)(F)C(F)(F)C(F)(F)C(F)(F)F [11:1 Fluorotelomer alcohol]; conditions: in DMSO
Protocol: as §1

[14] = compound: OCCC(F)(F)C(F)(F)C(F)(F)C(F)(F)C(F)(F)C(F)(F)C(F)(F)C(F)(F)F [8:2 Fluorotelomer alcohol]; conditions: 2200 nM; in DMSO
Protocol: as §1

| Test System | level (log10) [1] | level (log10) [2] | level (log10) ([3]; 740 nM) | level (log10) ([3]; 2200 nM) | level (log10) ([3]; 6700 nM) | level (log10) ([3]; 20000 nM) | level (log10) ([4]; 740 nM) | level (log10) ([4]; 2200 nM) | level (log10) ([4]; 6700 nM) | level (log10) ([4]; 20000 nM) | level (log10) [5] | level (log10) (Perfluorooctanamide) | level (log10) (Perfluoroundecanoic acid; 740 nM) | level (log10) (Perfluoroundecanoic acid; 2200 nM) | level (log10) [6] | level (log10) (Perfluorobutanoic acid) | level (log10) (Perfluoropropanoic acid) | level (log10) [7] | level (log10) [8] | level (log10) [9] | level (log10) ([10]; 2200 nM) | level (log10) ([10]; 6700 nM) | level (log10) ([10]; 20000 nM) | level (log10) ([10]; 60000 nM) | level (log10) [11] | level (log10) [12] | level (log10) ([13]; 370 nM) | level (log10) ([13]; 1100 nM) | level (log10) ([13]; 3300 nM) | level (log10) ([13]; 10000 nM) | level (log10) [14] |
| --- | --- | --- | --- | --- | --- | --- | --- | --- | --- | --- | --- | --- | --- | --- | --- | --- | --- | --- | --- | --- | --- | --- | --- | --- | --- | --- | --- | --- | --- | --- | --- |
| KF3CT:CD54/ICAM-1 | 0.004 ± 0.0071 | -0.02 ± 0.014 | 0.008 ± 0.0071 | -0.009 ± 0.016 | -0.0045 ± 0.0092 | -0.0175 ± 0.025 | -0.007 ± 0.017 | -0.026 ± 0.014 | -0.015 ± 0.0085 | -0.018 ± 0.021 | -0.016 ± 0.018 | 0.0085 ± 0.03 | -0.018 ± 0.0099 | -0.0225 ± 0.0092 | -0.0045 ± 0.033 | 0.012 ± 0.016 | 0 ± 0.011 | 0.0105 ± 0.037 | 0.014 ± 0.02 | -0.022 ± 0.025 | 0.0025 ± 0.037 | 0.0075 ± 0.013 | 0.011 ± 0.018 | -0.0025 ± 0.029 | 0.0125 ± 0.0021 | 0.006 ± 0.028 | 0 ± 0.0099 | -0.014 ± 0.0071 | -0.0295 ± 0.0021 | -0.0045 ± 0.012 | -0.01 ± 0.024 |
| KF3CT:CXCL8/IL-8 | 0.0095 ± 0.0064 | 0.0055 ± 0.00071 | 0.0105 ± 0.005 | 0.0055 ± 0.0092 | 0.013 ± 0.0071 | 0.0605 ± 0.0092 | 0.0025 ± 0.0078 | 0.0055 ± 0.005 | 0.0135 ± 0.0021 | 0.014 ± 0.0028 | 0.007 ± 0.025 | -0.011 ± 0.0057 | 0.015 ± 0.0099 | 0.0025 ± 0.037 | 0.0025 ± 0.018 | 0.011 ± 0.041 | 0.0205 ± 0.0092 | 0.007 ± 0.045 | 0.012 ± 0.041 | -0.0115 ± 0.018 | 0.007 ± 0.034 | 0.001 ± 0.013 | 0.0085 ± 0.028 | 0.018 ± 0.0014 | 0.017 ± 0.018 | -0.0045 ± 0.0078 | -0.0095 ± 0.0064 | 0 ± 0.013 | 0.015 | 0.014 ± 0.025 | 0 ± 0.016 |
| KF3CT:CXCL9/MIG | -0.0035 ± 0.0021 | -0.0085 ± 0.00071 | -0.0035 ± 0.016 | 0.0085 ± 0.0092 | 0.0045 ± 0.00071 | -0.01 ± 0.025 | 0.0105 ± 0.021 | 0.0095 ± 0.013 | 0.0115 ± 0.022 | 0.012 ± 0.014 | 0.004 ± 0.0014 | 0.02 ± 0.02 | 0.0155 ± 0.0064 | 0.009 ± 0.024 | -0.0085 ± 0.013 | 0.006 | 0.0045 ± 0.021 | 0.0015 ± 0.022 | 0.006 ± 0.016 | -0.0085 ± 0.011 | 0.002 ± 0.014 | -0.0005 ± 0.012 | 0.0005 ± 0.011 | 0 ± 0.0028 | 0.0075 ± 0.0021 | -0.003 ± 0.021 | 0.0035 ± 0.011 | 0.0015 ± 0.0035 | -0.004 | 0.005 ± 0.011 | 0.006 ± 0.023 |
